{"source": "paper PMC6805947", "target": "SlaA (outer S-layer sheath protein of Sulfolobus solfataricus) (S. solfataricus (endogenous in the culture)) (UniProt Q980C7)", "experiment": "reassembly of the denatured S-layer protein; S-layer preparation washed free of SlaB, resuspended in 20 mM Na2CO3 pH 10.5, agitated overnight at room temperature until sacculi were no longer visible by light microscopy; Brock medium added to 1x, pH titrated to 3.5 with H2SO4, overnight at 78 °C; aggregates observable; called preliminary data; both purified", "note": "Results are given in words; binding and its absence hold for the method and conditions named. Some binding calls cover weakened binding; strength is not graded here."}
{"binder": "SlaA (outer S-layer sheath protein of Sulfolobus solfataricus) (protein, UniProt Q980C7 36-1231) AAIYTIPSVTSVSNTSNIVINLFFNATSNSTVGAQASAFNYGLAINYTLDAITFTVVLPSGTSYPLIKLNAKNFANYGYYDLAHNSIVLLLNTTASSTAKELAYSYEQSIGVTPSASYKIYNYTNKTVNVNQYMNELPLSMLIYMATNGKYNNLASLPVGTKLEFTYAGVTYIIAVSPTVKLVGELLNPLYTANSKMLPGTNYAVGRSNITVAVYDNLITTTTSPFNFTLTYSSLAPALIYWFVIANTTYTNNGASTPTASFQAPPFKQYFPSNSTILYSAAPTKSSILMFNGQMNVTAHENVTLTLQTGTNIYTSPNFNVTPPGNYTFSGKLGVGFNGFIYQNGSATLTATIFNGTINFFFSSTGQKAAFTFFLVPIVPINLGDNNGATVIYNGVSLNTGFPQVVVMFNITGNFTKSGSNYLLYGSVYEAELKPLGSTQLQKLAGATDSTQFVGNLISSASSPLVSYFNYGESTTTITGTSLSFTVLMPLKFIVERLGYIYLVTFHIWGPSATVTVTGVDYHGTQIALGSFRAYVALPSFYTLPKTPLVGLTCDNMYTLAQVSDAGSVLETSTANSNANNATVIGPYDLMSNAGLHVAIYNGSKLVKSGNLGLLPNATTAPITTTITLNGQTVALTYSSAPTAIYPVDFKFEPGFSYSVTTNVIYNTSIPTYVVTVYMPLKYILQTKIVMWYVSPDYAAYFYYSSTGQYQTSNVTLTFANVTPELVMPQVFPVGKLYMPFGINDPYYVFYSSISIGPQSGVIEAVENGFNVGNITSITVELNGMNESIVLSPLNVSKLLISSNLGEVSQCSPLFTTTLFNISALASLLGLPNAAALNGSYLYVTYHDIISGAYVTNRTLLVVGQFYVMPPTTPGSVEWILTAKYINATTGIPVEISYAVVQQPSAKVVDINAANASITQIQVTGVKIVSKYATVTVMYNPSNASTIVYMNGMFVASYGGNLISSLSETSTFGVYYGAVVNLYVATGTLSSPNGTMYVVLGSHKVAVGTANLYTYAGYHFGPYTALPLVSNVTFTVQDPVTHATLTGQTTLGAFNNTPIRLAPLGVSIPQTAQYKVFYYYSTPLVLSPTSQYIVLSVTSVISYPYPFYIETVSFLGYNVTTGTPVPGTPAFQTVYSPSLGPGVVLQVPVQSYQFISLSTPSEPHTVVMFAVPFAGGPAISLYPTFLVYANVTAISS", "values": [{"measurement": "binding", "value": "binds"}]}
